Earlier results, collected in patent US20180161291A1, “EXTENDED RELEASE UREA COMPOSITIONS” (Kato Pharmaceuticals, Inc., priority 2015, published 2018).
Read-outs that look alike come from different tables or passages of the source.

Conditions: cited from earlier work

NC(N)=O [urea]
solubility (in chloroform or ether): practically insoluble | solubility (in water, ethanol, methanol and glycerol): very soluble
